A: 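Assay on Mycobacterium tuberculosis, filed only as a heat shock assay from Cornell; the read-out is not stated. The concentration is filed as 10 mM, unlikely as a test dose, so the dose is not known. Higher reads as stronger inhibition (inferred: compounds with an IC50 in retests scored well above the rest). Size under these conditions: about 69,000 compounds, about 930 of them at 50% or above in at least one test.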
B: 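Methionyl-tRNA synthetase (putative), Leishmania donovani (UniProt E9BF75). Primary screen of methionyl-tRNA synthetase; the read-out is not stated. The test concentration is not given. Values are per cent inhibition. Size under these conditions: about 68,000 compounds, about 24 of them at 50% or above in at least one test.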
C: 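Whole-cell assay for inhibitors of Mycobacterium tuberculosis growth, labelled Cornell in the record; the read-out is not stated. The concentration is filed as 10 mM, unlikely as a test dose, so the dose is not known. The record gives no direction; compounds strong in two other growth screens of this library score well above the rest, so higher reads as stronger inhibition. About 53,000 compounds were tested under these conditions; 1.7% (about 900) showed 50% or more at least once.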

Protein sequences, listed by entry. Tags and fused reporters are not part of them.
UniProt E9BF75, entry or part of it: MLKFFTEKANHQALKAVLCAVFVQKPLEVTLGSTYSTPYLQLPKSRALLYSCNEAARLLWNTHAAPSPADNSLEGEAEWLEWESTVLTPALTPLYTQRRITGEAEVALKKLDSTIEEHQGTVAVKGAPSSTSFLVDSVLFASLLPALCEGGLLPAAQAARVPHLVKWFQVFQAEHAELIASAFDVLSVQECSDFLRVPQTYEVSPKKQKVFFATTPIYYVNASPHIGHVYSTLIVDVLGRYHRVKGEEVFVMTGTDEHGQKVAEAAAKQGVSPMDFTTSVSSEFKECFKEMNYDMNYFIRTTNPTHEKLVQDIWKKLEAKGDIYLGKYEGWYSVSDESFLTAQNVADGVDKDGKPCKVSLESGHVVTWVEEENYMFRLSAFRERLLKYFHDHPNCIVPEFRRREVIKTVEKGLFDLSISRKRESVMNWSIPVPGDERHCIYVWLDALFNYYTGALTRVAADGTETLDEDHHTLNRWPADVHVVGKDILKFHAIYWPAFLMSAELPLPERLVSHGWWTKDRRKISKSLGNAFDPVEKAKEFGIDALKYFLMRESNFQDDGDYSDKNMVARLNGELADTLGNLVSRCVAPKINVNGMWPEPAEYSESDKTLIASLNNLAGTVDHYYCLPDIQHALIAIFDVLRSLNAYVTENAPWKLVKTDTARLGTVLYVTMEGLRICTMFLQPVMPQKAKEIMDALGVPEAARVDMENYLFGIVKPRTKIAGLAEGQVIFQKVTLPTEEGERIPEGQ

All values are in %. The record does not define 0% and 100%; most values in the screen are far below 50% and negative numbers occur (in some assays of this library far below -100). The compounds are a random part of those screened. A dash means the value is not listed here; it may have been measured.

compound | A | B | C
[H][C@]12CCC[C@@H](CN3CCCC3)[C@@]1([H])CN(c1ncccn1)C2 | -10.8 | - | -
Cc1ccccc1S(=O)(=O)N1CCCCC1c1ccn[nH]1 (stereo unspecified) | -19.55 | 7.343 | -
O=C(CCn1cc(Cl)cn1)Nc1ccc2c(c1)OCCO2 | 11.71 | -22.65 | -
c1csc(CN2CCO[C@H]3[C@H](OCCN4CCCC4)CC[C@@H]32)n1 | - | -1.575 | -
CC(C)n1nc2c(cc1=O)CN(c1nc3ccccc3s1)CC2 | 15.74 | - | -
[H][C@]12CNC[C@@]1(C(=O)NCc1snnc1C)CN(C(=O)COC)C2 | -0.3449 | - | -49.22
CC(C)CN1CCC2(COCc3cnc(-c4ccccc4)nc32)C1.O=C(O)C(F)(F)F (stereo unspecified) | 4.327 | - | 20.42
CC(CO)NC(=O)c1ccc(NCc2ccc(F)c(F)c2)cc1 (stereo unspecified) | 18.18 | 10.45 | 4.78
O=C(CNC(=O)c1ccc(Cl)cc1)Nc1nccs1 | -5.264 | 8.707 | -15.62
O=C(NCCNC(=O)C1CCN(c2ncccn2)CC1)c1ccoc1 | 32.87 | 10.31 | -17.42
CCCc1nc(C)c(C(=O)NCCn2ccnc2)s1 | -8.549 | 2.749 | 24.53
CC(NC(=O)Nc1cc(F)ccc1N1CCCCC1)c1nncn1C (stereo unspecified) | 20.89 | 4.575 | 8.435
CCOC(=O)C1CC2(CCCCC2)N2CCC(=O)N12 (stereo unspecified) | 6.414 | 11.23 | 36.35
CCn1nc(C)c(CN(Cc2ccccn2)Cc2ccccc2Cl)c1C | 58.2 | 9.841 | 4.58
Cc1ccc(CN2CCC3(CCCN(C(=O)N(C)C)C3)C2)cc1 (stereo unspecified) | -2.916 | 14.98 | 28.35
COCCN1CCCC12CCN(c1ncccn1)CC2 | - | 9.929 | -
CCCC(N)CNS(=O)(=O)Cc1cccc(C#N)c1 (stereo unspecified) | - | 15.03 | -
CN1CCC(C(=O)NCCC2CN(c3cnn(C)c(=O)c3)CCO2)CC1 (stereo unspecified) | 4.861 | 18.62 | -3.798

Some entries from above, unchanged:

{"compound": "[H][C@]12CCC[C@@H](CN3CCCC3)[C@@]1([H])CN(c1ncccn1)C2", "A": -10.8}
{"compound": "CC(C)n1nc2c(cc1=O)CN(c1nc3ccccc3s1)CC2", "A": 15.74}

Data taken from ChEMBL document CHEMBL3988442, “University of Dundee, Small-Polar-MMV Screening Library” (2021).